Results are given in words; binding and its absence hold for the method and conditions named. Some results given as binding are weak or reduced against the parent protein; the word gives no strength. For some of these results: Tags and fused reporters may be left off the sequences shown.
Tests used:
[1] = target: His-tagged IFNAR1 (human) (UniProt P17181); test: BLI; blocking format: IFN-I preincubated 1 h at room temperature with rontalizumab (1:50), sifalimumab (1:50) or plasma (1:10) in assay buffer with 50% goat serum; His-tagged IFNAR1 or IFNAR2 loaded on Ni-NTA biosensors, blocked in 100% goat serum; association 120 s; both purified
[2] = target: T1, His-tagged IFNAR2 (human) (UniProt P48551); test: as above
T1 sequence: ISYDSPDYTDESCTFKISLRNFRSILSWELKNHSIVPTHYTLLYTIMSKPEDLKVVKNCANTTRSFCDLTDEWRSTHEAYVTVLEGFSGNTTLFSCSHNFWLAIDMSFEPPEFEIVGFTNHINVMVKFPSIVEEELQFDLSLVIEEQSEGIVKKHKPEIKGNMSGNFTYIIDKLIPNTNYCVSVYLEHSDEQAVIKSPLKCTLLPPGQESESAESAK

Amino acid sequences for entries named in this document (tags omitted). Residues count along the entry.
UniProt P17181, residues 28-436: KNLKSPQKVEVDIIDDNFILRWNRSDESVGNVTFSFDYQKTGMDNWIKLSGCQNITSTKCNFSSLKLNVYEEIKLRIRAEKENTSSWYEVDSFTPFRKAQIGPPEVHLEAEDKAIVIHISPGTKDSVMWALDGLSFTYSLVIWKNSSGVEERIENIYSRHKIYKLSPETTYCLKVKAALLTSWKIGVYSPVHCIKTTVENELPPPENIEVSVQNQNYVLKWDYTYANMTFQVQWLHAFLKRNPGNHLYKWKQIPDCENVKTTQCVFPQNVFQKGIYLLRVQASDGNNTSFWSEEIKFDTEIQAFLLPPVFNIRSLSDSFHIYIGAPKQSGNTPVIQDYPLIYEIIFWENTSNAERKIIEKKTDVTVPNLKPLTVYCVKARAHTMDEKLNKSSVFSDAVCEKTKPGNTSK
UniProt P05000, residues 22-195: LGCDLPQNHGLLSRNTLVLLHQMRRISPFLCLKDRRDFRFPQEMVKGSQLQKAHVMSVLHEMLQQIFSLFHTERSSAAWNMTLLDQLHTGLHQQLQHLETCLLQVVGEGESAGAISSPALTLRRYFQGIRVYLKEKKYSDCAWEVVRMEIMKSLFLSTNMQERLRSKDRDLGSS

[3] = target: His-tagged IFNAR1 (human) (UniProt P17181); test: BLI; His-tagged IFNAR1 (25 nM) or IFNAR2 (100 nM) loaded on Ni-NTA biosensors for 600 s; IFN-I in solution, association 60-120 s, dissociation 120 s; 0.02% Tween-20, 0.1% BSA in 1x PBS, pH 7.4; Octet R2; both purified
[4] = target: T1, His-tagged IFNAR2 (human); test: as above

Measured: binding

IFNω (from UniProt P05000 22-195) (ligand)
binds: all assays above

From paper PMC11924951
